# Measured values taken from paper PMC5996148.
# Values joined by “and” are separate entries in the source; they are usually repeats but may differ in a detail not shown here. Equal values may be shown once. The list shows a part of the results.
# Legend:
# Test in all cases: protein microarray (ProtoArray v5.0), streptavidin-Alexa Fluor 647
# Details in all cases: 3'-biotin; 20 mM Tris (pH 7.5), 5 mM MgCl2, 100 mM KCl, 0.1% Tween-20, A/T-rich and random oligonucleotide blockers; temperature not stated; high values mean tight binding
# RNF141 (human) = test system: RNF141 (human)
# RNF34 (human) = test system: RNF34 (human)
# ROM1 (human) = test system: ROM1 (human)
# RP11-49G10.8 (human) = test system: RP11-49G10.8 (human)
# RP2 (human) = test system: RP2 (human)
# RP5-860F19.3 (human) = test system: RP5-860F19.3 (human)
# RPA2 (human) = test system: RPA2 (human)
# RPA4 (human) = test system: RPA4 (human)
# RPAIN (human) = test system: RPAIN (human)
# RPE (human) = test system: RPE (human)
sequence,measurement,setting,value
GGGAGGCTGAGGCAGG [G4-1 biotinylated (PQS2)],binding signal,RNF141 (human),-0.358 z-score
same,binding signal,RNF34 (human),-0.319 z-score and -0.278 z-score
same,binding signal,ROM1 (human),-0.32 z-score
same,binding signal,RP11-49G10.8 (human),-0.338 z-score
same,binding signal,RP2 (human),-0.3 z-score
same,binding signal,RP5-860F19.3 (human),-0.333 z-score
same,binding signal,RPA2 (human),-0.323 z-score
same,binding signal,RPA4 (human),-0.34 z-score
same,binding signal,RPAIN (human),-0.319 z-score
same,binding signal,RPE (human),-0.291 z-score
